# Measurements taken from PubChem BioAssay (EPA / NIEHS).
# Sequences of proteins named here, by UniProt entry; tags and fusion partners are left off.
# UniProt P10826, whole entry, looked up: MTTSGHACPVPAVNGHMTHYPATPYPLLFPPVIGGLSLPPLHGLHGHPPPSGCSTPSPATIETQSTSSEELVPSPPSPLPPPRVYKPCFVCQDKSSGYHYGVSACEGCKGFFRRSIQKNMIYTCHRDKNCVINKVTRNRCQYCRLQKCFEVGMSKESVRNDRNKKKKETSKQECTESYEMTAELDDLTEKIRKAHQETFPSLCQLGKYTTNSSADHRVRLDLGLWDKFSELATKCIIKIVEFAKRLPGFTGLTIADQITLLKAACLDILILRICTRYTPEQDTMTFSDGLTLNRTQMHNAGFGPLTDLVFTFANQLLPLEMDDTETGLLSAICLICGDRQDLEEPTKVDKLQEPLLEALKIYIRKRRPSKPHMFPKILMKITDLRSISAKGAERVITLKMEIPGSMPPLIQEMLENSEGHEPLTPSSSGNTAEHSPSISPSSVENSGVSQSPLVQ
# “And” between values parts separate entries of the source, which are not always exact repeats. Identical values can stand only once. The shares of active, inactive and inconclusive entries below differ from those in the screen. Potencies beside an inconclusive call are fits to weak or partial responses and may not hold up. The source made the active and inactive calls. Rule for the calls: active = hit-call score of the fitted dose curve at least 0.9, where 1 is the maximum; inconclusive = response in the unintended direction; inactive = score below 0.9.
# Target: human Retinoic Acid Receptor beta (RARb), RARB (gene 5915) (UniProt P10826)
# Experiment: ATG_RARb_TRANS: Attagene TRANS-FACTORIAL HepG2 Assay for human Retinoic Acid Receptor beta (AID 2283004)
# Protocol: ATG_TRANS is a cell-based, multiplexed-readout assay that uses HepG2, a human liver cell line, with measurements taken at 24 hours after chemical dosing in a 24-well plate.ATG_RARb_TRANS is one of 30 assay component(s) measured or calculated from the ATG_TRANS assay. It is designed to make measurements of mRNA induction, a form of inducible reporter, as detected with fluorescence intensity signals by Reverse transcription polymerase chain reaction (RT-PCR) and Capillary electrophoresis technology.Data from the assay component ATG_RARb_TRANS was analyzed into 1 assay endpoint. This assay endpoint, ATG_RARb_TRANS, was analyzed in the positive analysis fitting direction relative to DMSO as the negative control and baseline of activity. Using a type of inducible reporter, measures of mRNA for gain-of-signal activity can be used to understand the reporter gene at the transcription factor-level as they relate to the gene RARB. Furthermore, this assay endpoint can be referred to as a primary readout, because this assay has produced multiple assay endpoints where this one serves a reporter gene function. To generalize the intended target to other relatable targets, this assay endpoint is annotated to the nuclear receptor intended target family, where the subfamily is non-steroidal.
# Human liver HepG2 cells are transiently transfected with multiple reporter transcription units (MRTUs) in 6-well plates using FuGene 6 reagent (Roche; 3 ml FuGene/1 mg DNA). The MRTU constructs are regulated by a cis-regulating element (promoter). […] A major difference between the CIS and TRANS system is that in CIS activities of endogenous TFs are measured, whereas the TRANS assay evaluates changes in activities of exogenous, chimeric NR-Gal4 proteins. […] At the end of 24 hour incubation, total RNA was isolated using TriZol reagent (Invitrogen). The isolated RNA is then reverse-transcribed using oligo(dT) primer and Mo-MLV reverse transcriptase (Invitrogen) with DNAse I (Ambion) treatment for 30 min. The one-tenth of the produced cDNA was amplified by PCR using Taq DNA polymerase (Invitrogen) and two reporter sequence-specific primers. The PCR products were fluorescently labeled by primer extension with 6-arboxyfluorescein (6-FAM) 5'-labeled reporter sequence-specific primer (2 min at 95 C, 20 s at 68 C and 10 min at 72 C) and these products were digested with 5U of HpaI (New England Biolabs) for 2h at 37 C. The fragments were purified using Qiaquick PCR columns (Qiagen), analyzed on an ABI 3130xL genetic analyzer (Applied Biosystems) with peak positions identified by using a set of X-rhodamine (ROX)-labeled MapMarker1000 molecular weight standards (BioVentures). The raw capillary electrophoresis data was processed using Attagraph software (Attagene).
Compound,AC50,outcome
CC(C)(C)c1ccc(OC(=O)c2ccccc2O)cc1,inconclusive: 0.011 µM,–
O=CC1CC1,inconclusive: 100 µM,–
CCCCOC(=O)[C@@H](C)Oc1ccc(Oc2ccc(C(F)(F)F)cn2)cc1,–,inactive
O=C(CC(=O)C(F)(F)C(F)(F)C(F)(F)F)c1cccs1,inconclusive: 50 µM and inconclusive: 13.6 µM,–
CCN(CC)CCNc1ccc(CNC=O)c2sc3ccc(OC)cc3c(=O)c12,inconclusive: 0.909 µM,–
COC(OC(C)=O)c1ccccc1 (stereo not given),inconclusive: 66.3 µM,–
Clc1cc(Cl)c(Cl)c(Cl)c1Cl,–,inactive
OC1CCCC1,inconclusive: 100 µM,–
O=C(Cl)C(F)(F)C(F)(F)C(F)(F)C(F)(F)C(F)(F)C(F)(F)C(F)(F)F,inconclusive: 179 µM,–
C=CCCCCCCCCC(=O)OCCCC,inconclusive: 3.03 µM,–
OC12N=C(c3ccccc3)SC1Cc1cc(Cl)ccc12 (stereo not given),inconclusive: 5.44 µM,–
CCN(Cc1cccc(S(=O)(=O)O)c1)c1ccc(C(=C2C=CC(=[N+](CC)Cc3cccc(S(=O)(=O)O)c3)C=C2)c2ccccc2S(=O)(=O)[O-])cc1,inconclusive: 2.1 µM,–
CC(C)(C)C1CCCCC1O (stereo not given),–,inactive
FC(F)=C(F)C(F)(F)C(F)(F)C(F)(F)C(F)(F)C(F)(F)C(F)(F)F,–,inactive
CCCCCCCCCCCCc1ccc(O)cc1,inconclusive: 11.1 µM,–

Compound,AC50,outcome
C[C@]12CC[C@@H]3c4ccc(O)cc4C[C@@H](CCCCCCCCCS(=O)CCCC(F)(F)C(F)(F)F)[C@H]3[C@@H]1CC[C@@H]2O (stereo not given in full),inconclusive: 62 µM,inactive
CCCNC(=O)NS(=O)(=O)c1ccc(Cl)cc1,–,inactive
CCCC(=O)OC/C=C(\C)CCC=C(C)C,inconclusive: 100 µM,–
COC(=O)c1ccccc1O,–,inactive
Cc1c(C)c([N+](=O)[O-])c(C(C)(C)C)c([N+](=O)[O-])c1C,–,inactive
CCCCC/C=C\C/C=C\CCCCCCCC(=O)OC,inconclusive: 100 µM,–
NC(=O)N1c2ccccc2C=Cc2ccccc21,–,inactive
C=CC(=C)CCC=C(C)C,inconclusive: 19.8 µM,–
CC[N+](CC)(CC)Cc1ccccc1,–,inactive
C=CC(=O)OCCCCCCOC(=O)C=C,inconclusive: 2.95 µM,–
CCN(CC)C(=O)c1cc(S(=O)(=O)Cc2ccccc2)c(N2CCC(c3ccccc3)CC2)cc1N(CC)CCN(C)C,inconclusive: 3.7 µM,–
CCC(C)(C)C1CCC(O)CC1 (stereo not given),inconclusive: 184 µM and inconclusive: 17.5 nM and inconclusive: 54 µM,inactive
